Source: article PMC3663837
Results are given in words; binding and its absence hold for the method and conditions named. Binding can be weak; no strength is given.

Legend:
[1] = target: SUMO-StPTB1 (Solanum tuberosum (potato)); experiment: ELISA; phage ELISA of clones of a random 21-mer phage peptide library after four rounds of panning against StPTB1 or StPTB6; only the target purified
[2] = target: SUMO-StPTB6 (Solanum tuberosum (potato)); experiment: as above

Row | Binder | binding [1] | binding [2]
1 | LYNSMPSILGVWRPSTSRFPD | binds | 
2 | VNVQRYRMDGVLGPWPGYNLE |  | binds
